Measured values as given in patent US20040208887A1.
Results are given in words; binding and its absence hold for the method and conditions named. A result given as binding can be weak or reduced; the word gives no strength.

B1: Fab clone 4:6 (Fab, V domains shown)
VH: VQLLEQSGAEVKKPGASVKVSCKASGYTFTKYYLHWVRQAPGQGLEWMGFINPSGGSTSSAQKFQGRISMTRDTSTTTVYMEVNSVTSEDTAVYYCARVGRLGVGATGAFDLWGQGTMVTVSS
VL: AELTQSPSSLSASVGDRVTITCQASQDINYSLNWYQQKPGKPPKLLIYYASHSDTGVPSRFSGGGSGTRFTLTIYSLQPEDIATYYCQHFDHVPRYTFGPGTKVDLK
B2: Fab clone 6a:5 (Fab, V domains shown)
VH: EVQLLESGPGLVKPSQTLSLTCAISGDNVSRKSAAWNWIRQSPSRGLEWLGRTYHMSKWYSVYATSLKSRININVDTSRNQFALQLRSVTPEDTAVYYCAREGPEWAVGGTYGMDVWGQGTTVTVSS
VL: AELTQSPDTLSLSPGERATLSCRASQSVNNNYLAWYQQKPGQAPRLLIYGASSRATGIPDRFSGSGSETDFTLTISRLEPEDFAVYYCQQYDSSRTFGQGTKVEIK

Assays:
[1] = target: recombinant soluble HCV E1 protein (hepatitis C virus); assay: ELISA for E1 reactivity, second selection series
[2] = target: recombinant soluble HCV E1 protein (hepatitis C virus); assay: ELISA, crude periplasmic Fab

Binder	binding [1]	binding [2]
B1	binds	binds
B2		binds
